# PubChem BioAssay AID743454, Peter MacCallum Cancer Centre – 2014
# Screen: 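Knock-downs lowering viability or raising caspase 3/7 activity in vorinostat-treated resistant cells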 (primary screen)
# Cells: human HCT116-VR colon cancer cells, selected for vorinostat resistance
# Reagent: siRNA pool against human genes, 40 nM siRNA pool
# Duration: vorinostat for 24 h, read-out about 72 h after transfection
# Treatment: vorinostat at 2.5 µM final
# Read-out: 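Cell viability by CellTiter-Fluor and caspase 3/7 activity by luminescence, each scaled to mock wells per plate, duplicates averaged, then robust z-scored over all plates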
# Scale: viability robust z-score: higher = more viable cells than screen typical; caspase robust z-score: higher = more caspase 3/7 activity than screen typical
# Rule for the call: 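a knock-down is a hit when classed RV1 or RV2 for lowered viability, or CA1 or CA2 for caspase activation; those lethal without drug were dropped; hits were retested singly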
# The deposit covers about 18,000 reagents; shown is a part drawn at random. 450 of all reagents (2.5%) count as active. 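Single biological run; no consistent viability z cut-off exists, so the class columns, not z-scores, define the calls.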
gene knocked down,viability hit class,caspase hit class,viability robust z-score,caspase robust z-score,outcome
RPS17P16 (GeneID 402057),no change,no change,0.1,-0.73,inactive
CCT8L2 (GeneID 150160),no change,no change,0.16,0.3,inactive
TM2D3 (GeneID 80213),no change,no change,0.71,0.32,inactive
ICAM5 (GeneID 7087),no change,no change,-0.55,0.15,inactive
DAND5 (GeneID 199699),no change,no change,0.12,1.92,inactive
RPL9 (GeneID 6133),no change,no change,-3.48,-0.42,inactive
CSPG4 (GeneID 1464),no change,no change,0.29,0.97,inactive
OR13H1 (GeneID 347468),no change,no change,-0.24,0.49,inactive
HLA-DOB (GeneID 3112),no change,no change,-1.54,1.62,inactive
EEF1G (GeneID 1937),no change,no change,0.16,0.62,inactive
KIF11 (GeneID 3832),no change,no change,-4,0.59,inactive
C19orf12 (GeneID 83636),no change,no change,-1.4,2.12,inactive
NAA11 (GeneID 84779),no change,no change,0.25,0.03,inactive
MAP4K1 (GeneID 11184),no change,no change,-1.56,1,inactive
HOXC8 (GeneID 3224),no change,no change,-0.86,-0.68,inactive
OR7A10 (GeneID 390892),no change,no change,0.46,-0.8,inactive
CAPRIN1 (GeneID 4076),no change,no change,0.32,0.93,inactive
OR4L1 (GeneID 122742),no change,no change,-0.5,-1.06,inactive
PUDP (GeneID 8226),no change,no change,0.38,1.82,inactive
GTF2H3 (GeneID 2967),no change,no change,-0.1,2.84,inactive
CBR4 (GeneID 84869),no change,no change,-0.93,-1.08,inactive
SNHG29 (GeneID 125144),no change,no change,-0.88,2.5,inactive
RNF113B (GeneID 140432),no change,no change,-2.04,4.44,inactive
VN1R4 (GeneID 317703),no change,no change,-0.74,-0.42,inactive
RANBP10 (GeneID 57610),no change,no change,0.54,-0.14,inactive
C19orf25 (GeneID 148223),no change,no change,-0.13,-0.72,inactive
CLEC17A (GeneID 388512),no change,no change,0.48,-0.1,inactive
MOBP (GeneID 4336),no change,no change,-0.66,-0.15,inactive
IZUMO2 (GeneID 126123),no change,no change,0.1,1.44,inactive
OR4N4 (GeneID 283694),no change,no change,-0.4,-0.4,inactive
PPA1 (GeneID 5464),no change,no change,0.06,0.12,inactive
C22orf39 (GeneID 128977),no change,no change,-0.04,1.8,inactive
DLL3 (GeneID 10683),no change,no change,-1.1,0.24,inactive
EPYC (GeneID 1833),no change,no change,0.54,-0.49,inactive
CAVIN4 (GeneID 347273),no change,no change,0.42,0.2,inactive
DAAM2 (GeneID 23500),no change,no change,-0.15,-0.36,inactive
PTPRU (GeneID 10076),no change,no change,-0.19,0.16,inactive
JRK (GeneID 8629),no change,no change,-0.83,-0.83,inactive
KLHL15 (GeneID 80311),no change,no change,0.87,2.39,inactive
LCN8 (GeneID 138307),no change,no change,-1.46,1.25,inactive
SNAPC2 (GeneID 6618),no change,no change,-1.06,-1.1,inactive
CES1 (GeneID 1066),no change,no change,-0.58,-0.39,inactive
OGDHL (GeneID 55753),no change,no change,-1.56,1.08,inactive
SH3GL3 (GeneID 6457),no change,no change,-0.64,2.17,inactive
LRRC18 (GeneID 474354),no change,no change,1.04,3.06,inactive
PLEKHM1P1 (GeneID 440456),no change,no change,-0.43,0.22,inactive
MRE11 (GeneID 4361),no change,no change,1,1.5,inactive
ZNF530 (GeneID 348327),no change,no change,1.19,-0.82,inactive
TMEM186 (GeneID 25880),no change,no change,-0.54,0.32,inactive
CACNA1E (GeneID 777),no change,no change,-0.99,2.6,inactive
DNAAF19 (GeneID 388389),no change,no change,1.64,-0.72,inactive
FAM229B (GeneID 619208),no change,no change,-0.62,-0.44,inactive
TRIM38 (GeneID 10475),no change,no change,1.01,0.12,inactive
KCNQ5 (GeneID 56479),no change,no change,1.7,-0.44,inactive
GSTT2 (GeneID 2953),no change,no change,0.45,-0.08,inactive
TAS2R1 (GeneID 50834),no change,no change,0.7,-0.28,inactive
TMEM215 (GeneID 401498),no change,no change,0.73,0.08,inactive
